Data reported in the supplement of paper PMC12823440, “Inhibitors supercharge kinase turnover through native proteolytic circuits” (Nature, 2025).
Structures can show the parent of a compound that is named as a salt. This is one part of the list. Hit calls seldom repeat between salt and free forms of one compound.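 In K562 cells expressing nanoluciferase-fused kinases, luminescence was recorded at 4 h intervals between 2 and 18 h, normalized as percent of control with DMSO at 100% and a positive control at 0%. A significant (2 sigma) signal drop marks a time point as decreased. The authors' rule for a hit is not shown and takes in more than the number of time points.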

Chains of the proteins cited; added tags and fusions are not shown.
UniProt P29317, whole entry: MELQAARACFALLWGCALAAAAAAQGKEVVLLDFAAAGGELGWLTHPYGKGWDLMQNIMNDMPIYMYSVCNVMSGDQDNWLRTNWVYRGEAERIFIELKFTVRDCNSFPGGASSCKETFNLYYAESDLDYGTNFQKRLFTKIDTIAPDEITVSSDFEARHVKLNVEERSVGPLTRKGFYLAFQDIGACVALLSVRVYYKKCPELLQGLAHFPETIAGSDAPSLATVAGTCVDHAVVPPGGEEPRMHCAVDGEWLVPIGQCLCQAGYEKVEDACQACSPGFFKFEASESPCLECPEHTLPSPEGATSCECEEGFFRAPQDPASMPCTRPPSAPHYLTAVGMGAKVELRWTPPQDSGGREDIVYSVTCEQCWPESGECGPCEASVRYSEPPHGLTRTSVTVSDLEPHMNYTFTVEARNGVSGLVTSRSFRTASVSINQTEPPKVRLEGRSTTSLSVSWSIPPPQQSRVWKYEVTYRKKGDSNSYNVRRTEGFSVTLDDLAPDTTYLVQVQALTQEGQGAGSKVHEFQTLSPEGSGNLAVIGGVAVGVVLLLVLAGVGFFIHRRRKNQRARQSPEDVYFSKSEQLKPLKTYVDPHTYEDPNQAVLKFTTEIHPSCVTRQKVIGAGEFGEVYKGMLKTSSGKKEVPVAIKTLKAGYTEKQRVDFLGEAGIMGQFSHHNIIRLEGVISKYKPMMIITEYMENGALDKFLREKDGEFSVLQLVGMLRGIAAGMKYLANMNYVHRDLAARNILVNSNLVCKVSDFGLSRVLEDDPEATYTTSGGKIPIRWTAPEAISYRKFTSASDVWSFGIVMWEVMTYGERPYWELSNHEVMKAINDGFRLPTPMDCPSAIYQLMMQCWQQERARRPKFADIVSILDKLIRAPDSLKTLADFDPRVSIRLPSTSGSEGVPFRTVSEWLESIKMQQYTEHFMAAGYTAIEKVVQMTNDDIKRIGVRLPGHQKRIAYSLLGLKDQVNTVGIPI

target: EPHA2 (UniProt P29317); test: number of time points (of 5) at which kinase-Nluc abundance scored as decreased, DMSO-normalised (count); higher = more persistent destabilization; details: K562; 2-18 h

Structure (SMILES) | number of time points
CN1CC[C@H](c2c(O)cc(O)c3c(=O)cc(-c4ccc(C(F)(F)F)cc4Cl)oc23)[C@H]1CO [(2S,3R)-Voruciclib (hydrochloride)] (2.5 µM) | 0
CCn1nc(C2CCN(C(=O)CCO)CC2)nc1-c1cnc(N)c(-c2nnc(C(C)(C)C)o2)n1 (10 µM) | 0
O=C(O)c1ccccc1Nc1cccc(C(F)(F)F)c1 [Flufenamic acid] (10 µM) | 0
CNC(=O)c1ccc(-c2cnc3cnc(-c4ccccc4)cn23)cc1 (10 µM) | 0
Nc1cccc(S(=O)(=O)N2CCCN(S(=O)(=O)c3ccc4c(c3)OCCO4)CC2)c1 (10 µM) | 0
CC1(COc2ccc3c(c2)ncn3-c2ccc3cccc(N4CCC(N)CC4)c3n2)COC1 [Crenolanib] (2.5 µM) | 0
O=C(CCCCCn1cc(Nc2ncc(Cl)c(Nc3ccc(Cl)cc3)n2)cn1)NO (2.5 µM) | 0
CC(C)n1cnc2c(Nc3cccc(Cl)c3)nc(NCCO)nc21 (10 µM) | 0
COc1ccc(CCNc2ncc3c(=O)n(-c4cccc(F)c4)c(=O)[nH]c3n2)cc1OC (2 µM) | 0
OCCN(CCO)c1ccc(C(c2ccc(Cl)cc2)c2ccc(N(CCO)CCO)cc2)cc1 (10 µM) | 3
CSc1ccc(CN2CCCC(Nc3ccc4[nH]ncc4c3)C2)cc1 (centres undefined) [Rho-Kinase-IN-1] (10 µM) | 0
COc1cc(C(=O)N2CCC(N3CCN(C)CC3)CC2)ccc1Nc1ncc2c(n1)N(C)c1ccccc1C(=O)N2C (10 µM) | 0
CC(C)c1cc(/C=C(\C#N)C(N)=O)cc(C(C)C)c1O (10 µM) | 0
CCCNC(=O)c1cn2ncnc(Nc3cc(C(=O)NC4CC4)ccc3C)c2c1C (10 µM) | 0
COc1ccc2c(c1OC)OC1c3ccc(O)cc3OCC21 (centres undefined) [Methylnissolin] (10 µM) | 0
CN(CC(=O)N(Cc1ccc(C2CCCCC2)cc1)c1ccc(C(=O)O)c(O)c1)S(=O)(=O)c1c(F)c(F)c(F)c(F)c1F (2.5 µM) | 0
CCCCNC(=N)NC(=N)N [Buformin (hydrochloride)] (2.5 µM) | 0
O=C1NCCCc2c1oc1ccc(O)cc21 (10 µM) | 0
c1ccc(-c2oc3ncnc(NC[C@@H]4CCCO4)c3c2-c2ccccc2)cc1 (2.5 µM) | 0
CC(=O)Nc1nc2ccc(-c3cnc(C)c(NC(=O)OC4CCCCC4)c3)cc2s1 (10 µM) | 0

Structure (SMILES) | number of time points
CCOc1ccccc1C=C1C(=O)Nc2ccccc21 (10 µM) | 0
Cc1ccc(-c2nn(C(C)(C)CNC(=O)c3ccncc3)c3ncnc(N)c23)cc1 (2.5 µM) | 0
CC[C@H](Nc1ncnc2[nH]cnc12)c1oc2ccccc2c(=O)c1-c1cccc(F)c1 [Tenalisib] (10 µM) | 0
CC(C)(C)C(=O)N1N=CC[C@H]1c1ccccc1 (10 µM) | 0
COC1(C(=O)N[C@@H](C)c2ccc(-n3cc(F)cn3)nc2)CCC(c2nc(C)cc(Nc3cc(C)[nH]n3)n2)CC1 (stereo partly drawn) [trans-Pralsetinib] (2.5 µM) | 0
CN(C)Cc1cccc(N=C(c2ccccc2)c2c(O)[nH]c3cc(C(N)=O)ccc23)c1 (10 µM) | 0
COc1nc(-c2ccnc(NC(=O)C3CC3)c2)sc1C(N)=O [GSK-3β inhibitor 2] (10 µM) | 0
C=C[C@H]1[C@H](O[C@@H]2O[C@H](CO)[C@@H](O)[C@H](O)[C@H]2OC(=O)c2c(O)cc(O)cc2-c2cccc(O)c2)OC=C2C(=O)OCC[C@H]21 [Amarogentin] (10 µM) | 0
COc1cc(C(C)=O)cc(OC)c1O [Acetosyringone] (10 µM) | 0
O=C(O)CCc1ccc(NCc2cccc(Oc3ccccc3)c2)cc1 (10 µM) | 0
Cc1cc(C(C)Nc2ccccc2)c2nc(N3CCOCC3)cc(=O)n2c1 (centres undefined) (10 µM) | 0
O=C(O)c1ccc(-c2c[nH]c3ncc(-c4ccccc4)cc23)cc1C1CCCC1 (2.5 µM) | 0
CC1=C(CC(=O)O)c2cc(F)ccc2/C1=C\c1ccc(C(C)C)cc1 (10 µM) | 0
COc1cc(N2CCC(N(C)C)CC2)ccc1Nc1ncc(Cl)c(Nc2ccccc2P(C)(C)=O)n1 (2.5 µM) | 0
Cc1ccc(-c2ccc3c(ccc4sc5c(c43)NC[C@@H](C)NC5=O)n2)cn1 (10 µM) | 0
Nc1cc(C(F)F)c(-c2nc(N3C4CCC3COC4)nc(N3C4CCC3COC4)n2)cn1 (2.5 µM) | 0
O=c1cc(-c2ccc(O)c(O)c2O)oc2ccccc12 (10 µM) | 0
CC(C)c1ccc(CC(=O)N2CCN(c3ccc(C#N)nn3)CC2)cc1 (10 µM) | 0
CN(C)Cc1cccc(N=C(c2ccccc2)c2c(O)[nH]c3cc(C(=O)N(C)C)ccc23)c1 (10 µM) | 0

Among those listed so far, these contain a cyano group.
Structure (SMILES) | number of time points
CC(C)c1cc(/C=C(\C#N)C(N)=O)cc(C(C)C)c1O (10 µM) | 0
CC(C)c1ccc(CC(=O)N2CCN(c3ccc(C#N)nn3)CC2)cc1 (10 µM) | 0
